These are yes or no findings as the source states them, for the method shown. Some results given as binding are weak or reduced against the parent protein; the word gives no strength.
Tests used:
[1] = biological target: T1, human epithelial membrane protein-2 (EMP2) on cells (human) (UniProt P54851); test: FACS on cells
T1 sequence (looked up): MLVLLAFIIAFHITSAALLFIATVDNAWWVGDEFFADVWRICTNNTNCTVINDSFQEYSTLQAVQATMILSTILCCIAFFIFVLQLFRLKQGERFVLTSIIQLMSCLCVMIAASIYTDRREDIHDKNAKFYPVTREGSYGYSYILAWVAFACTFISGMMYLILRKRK

[2] = biological target: T2, mouse epithelial membrane protein-2 (EMP2) on cells (mouse) (UniProt O88662); test: FACS on cells
T2 sequence (looked up): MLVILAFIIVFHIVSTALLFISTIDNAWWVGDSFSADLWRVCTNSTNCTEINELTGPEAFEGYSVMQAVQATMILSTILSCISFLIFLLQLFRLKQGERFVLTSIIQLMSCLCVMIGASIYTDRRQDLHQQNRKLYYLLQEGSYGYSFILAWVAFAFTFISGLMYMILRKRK

[3] = biological target: T2, mouse epithelial membrane protein-2 (EMP2) on cells (mouse); test: FACS on NIH 3T3 cells
[4] = biological target: T2, mouse epithelial membrane protein-2 (EMP2) on cells (mouse); test: flow cytometry on cells
[5] = biological target: T3, biotin conjugated 24 amino acid peptide of the extracellular loop of mouse EMP2 (mouse); test: ELISA on peptide-coated plates
T3 sequence (peptide, biotin conjugated (position not stated)): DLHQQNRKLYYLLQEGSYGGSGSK

[6] = biological target: T1, human epithelial membrane protein-2 (EMP2) on cells (human); test: FACS on RL95-2 and Ishikawa cells
[7] = biological target: T3, biotin conjugated 24 amino acid peptide of the extracellular loop of mouse EMP2 (mouse); test: ELISA on mEMP2 peptide, diabody format
[8] = biological target: T1, human epithelial membrane protein-2 (EMP2) on cells (human); test: statement in the results; method not given
[9] = biological target: T2, mouse epithelial membrane protein-2 (EMP2) on cells (mouse); test: statement in the results; method not given
[10] = biological target: T3, biotin conjugated 24 amino acid peptide of the extracellular loop of mouse EMP2 (mouse); test: ELISA against the specific peptide used to select the antibody
[11] = biological target: T1, human epithelial membrane protein-2 (EMP2) on cells (human); test: flow cytometry on cells

Measured: binding

B1: anti-EMP2 diabody KS83 (other)
chain: MAQVQLVESGGGLVQPGGSLRLSCAASGFTFSSYAMHWVRQAPGKGLEWVAVISYDGSNKYYADSVKGRFTISRDNSKNTLYLQMNSLRAEDTAVYYCARTVGATGAFDIWGQGTMVTVSSSSGGGSDIVMTQSPSTVSASVGDRVIIPCRASQSIGKWLAWYQQKPGKAPKLLIYKASSLEGWVPSRFSGSGSGTEFSLTISSLQPDDSATYVCQQSHNFPPTFGGGTKLEIKRAAAEQKLISEEDLNGAAHHHHHH
notes: Diabody: bivalent dimer of a VH-5 aa linker-VL chain with c-Myc and 6 His tags; Selected against the mEMP2 peptide; also called K83; diabody 83
not listed: [11]
binds: all other assays above

B2: anti-EMP2 diabody KS49 (other)
chain: MAQVQLVQSGGGVVQPGRSLRLSCAASGFTFSSYAMHWVRQAPGKGLEWVAVISYDGSNKYYADSVKGRFTISRDNSKNTLYLQMNSLRAEDTAVYYCARDRRGRKSAGIDYWGQGTLVTVSSSGGGSDIQMTQSPSSLSASVGDRVTITCQASQDISNYLNWYQQKPGKAPKLLIYAASSLQSGVPSRFSGSGSGTDFTLTISSLQPEDFATYYCLQDYNGWTFGQGTKVDIKRAAAEQKLISEEDLNGAAHHHHHH
notes: Diabody: bivalent dimer of a VH-5 aa linker-VL chain with c-Myc and 6 His tags, made in E. coli TG1; Selected against the hEMP2 peptide; also called K49; anti-hEMP2 diabody
not listed: [4] | [5] | [7] | [10]
binds: all other assays above

Source: US20130230527A1 (University of California, published 2013)
